# Taken from: PubChem BioAssay AID1671195 (Yale University, 2021)
# Aim: 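Genes whose knockdown alters LDL uptake in liver cancer cells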 (primary screen)
# Cell system: human Huh7 hepatoma cells
# Reagent: siRNA pool against human genes, 18 nM
# Timing: about 2 to 2.5 days of knockdown, then 8 h LDL uptake
# Conditions: DiI-labelled LDL at 30 µg/ml for 8 h, in lipoprotein-deficient serum medium
# Measured: 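Fluorescent LDL signal imaged in cells, scaled to the plate median, robust z-score for each replicate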
# Direction: robust z-score: higher = more LDL uptake after knockdown
# Call rule: 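Active when two or more replicates show a robust z-score above 2 or below -2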
# The deposit covers about 22,000 reagents; shown is an unselected part. About 1,510 of them (6.9%) were called active. 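Active includes knockdowns raising or lowering LDL uptake; positive z-scores mean more uptake, negative mean less.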
gene symbol,"robust z-score, replicate 1","robust z-score, replicate 2","robust z-score, replicate 3",activity call
TSPAN11,0.0712,-0.19,-0.191,inactive
RFLNA,-0.888,-1.1,-1.29,inactive
VDR,0.471,-0.567,-0.536,inactive
COL4A1,2.85,1.02,1.4,inactive
AWAT1,0.708,0.531,0.386,inactive
NR1D1,-0.942,-0.346,-0.127,inactive
LOC442432 (retired record),1.16,1.29,1.41,inactive
TAS2R9,0.262,-0.168,0.979,inactive
DHRS4L2,-0.328,0.518,-0.352,inactive
POMGNT2,-0.9,-0.56,-0.426,inactive
TMCO5B,-0.473,-0.863,-0.626,inactive
SAMD15,-0.893,-1.15,-0.508,inactive
MPPED1,-1.82,-1.67,-2.33,inactive
FRS2,0.697,0.345,0.271,inactive
USP24,1.19,0.226,0.823,inactive
RHBG,0.633,-0.321,0.154,inactive
TMEM161A,0.298,-1.4,-1.14,inactive
KRT18P55,1.36,2.2,1.67,inactive
PCDHB3,0.0371,1.06,0.684,inactive
EIF1B,-1.87,-0.928,1.5,inactive
OR52H1,0.816,0.439,0.494,inactive
RPS9,-0.974,-1.33,-0.0346,inactive
C6orf15,-1.39,1.53,-0.68,inactive
TAF11L1,-0.724,-0.787,-1.05,inactive
ZNF524,-1.07,-0.804,-0.85,inactive
SLC35D3,-0.503,-0.688,-0.303,inactive
SIDT1,-0.174,-0.259,-0.357,inactive
PDLIM3,-1.15,-0.675,-1.39,inactive
PGAP2,1.44,-0.28,1.55,inactive
PHKA2,-0.727,-1.05,-0.578,inactive
LOC400948 (retired record),-0.693,-0.577,-0.871,inactive
GDF5,-0.608,2.41,0.848,inactive
LCP1,2.03,1.03,1.48,inactive
TIFA,0.59,-0.437,-0.262,inactive
PDILT,-0.852,-1.38,-1,inactive
H1-3,-1.03,-0.693,-1.11,inactive
ZWINT,-0.464,-0.886,0.00873,inactive
ZBTB25,2.35,2.81,1.83,active
MIR1915HG,1.39,0.895,0.821,inactive
ACSS2,-0.18,-0.0743,0.176,inactive
CD300E,-0.769,1.78,-0.504,inactive
LOC389637 (retired record),-0.294,-0.323,-0.311,inactive
RAP2A,0.45,-0.262,2.67,inactive
NUP98,0.682,0.235,0.673,inactive
RNF187,-0.876,-1.9,-0.153,inactive
TBC1D22B,-2.69,-1.55,-0.903,inactive
CRKL,-0.0291,-0.00448,-0.225,inactive
GNAI1,-1.87,-1.56,-1.56,inactive
CASP3,-1.5,-1.59,-1.02,inactive
TMEM259,-0.517,-0.84,0.185,inactive
POLK,-0.8,-0.799,-0.423,inactive
TBL3,-0.138,-0.566,-0.861,inactive
KLHDC8B,0.572,-0.112,-0.195,inactive
H4C3,-1.26,-0.946,-0.858,inactive
SPSB3,-0.31,-0.809,-0.901,inactive
IER2,0.26,-0.283,-1.23,inactive
MED30,-1.6,-0.983,-1.83,inactive
EIF4A3,-0.854,-0.593,-0.347,inactive
CCM2L,0.777,1.9,0.321,inactive
EGLN1,1.54,0.901,1.9,inactive
XAGE2,-0.244,0.553,-0.294,inactive
CASP2,0.242,-0.163,0.347,inactive
PBX4,-0.508,0.0427,-0.137,inactive
RNF24,-0.167,0.391,0.532,inactive
COL19A1,-1.57,-2.02,-2.27,active
CLDN1,0.605,0.506,0.191,inactive
OTUB2,-0.61,-0.671,-0.725,inactive
SPECC1,-0.118,-1.86,-1.24,inactive
